Results deposited as PubChem BioAssay AID1259405 (NCATS, 2018)

Aim: 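Knock-downs that lift recombinant protein yield in hamster ovary cells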 (primary screen)
Cell system: Chinese hamster CHO-K1 ovary cells with stable secreted eGFP expression
Reagent: single siRNA against mouse genes, 0.8 pmol siRNA per well (2 µl of 400 nM stock)
Timing: 3 days
Read-out: 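Per-well intracellular GFP measured by laser scanning cytometry, plus viability from ATP luminescence, each relative to plate median of non-targeting control wells, in %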
Direction: GFP, % of control: higher = more GFP per well, higher productivity
Hit rule: 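a knock-down is called active if GFP reaches 120% or more of non-targeting control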
The whole screen tested about 50,000 reagents; below is an unselected part. In the full data, about 4,000 (8%) are marked active. 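Mouse siRNA library applied to hamster cells; one well for each siRNA.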 The numbers tell different reagents against one gene apart. Further read-outs or replicates are left out here.

GFP, % of control, by gene symbol and reagent
Slx4ip: #1 35.4 inactive; #2 52.9 inactive; #3 94.8 inactive
Or52h9: #1 75.8 inactive; #2 111 inactive; #3 59.5 inactive
Guca1b: #1 64.6 inactive; #2 66.2 inactive
Nalf1: #1 95.8 inactive; #2 82.7 inactive; #3 67.6 inactive
Slc25a27: #1 88.4 inactive; #2 74.5 inactive; #3 67.8 inactive
Mrgpra7: #1 59.5 inactive; #2 77.6 inactive; #3 86.8 inactive
Rwdd4a: #1 46.1 inactive; #2 65.3 inactive; #3 127 active
Gss: #1 32 inactive; #2 91.3 inactive; #3 59.2 inactive
Spsb4: #1 53.3 inactive; #2 73.5 inactive; #3 18.1 inactive
Rhod: #1 61.1 inactive; #2 45.1 inactive; #3 81.9 inactive
Oxt: #1 57.5 inactive; #2 93.2 inactive; #3 40.9 inactive
Rsrp1: #1 72.2 inactive; #2 114 inactive; #3 127 active
Zhx3: #1 64.1 inactive; #2 55.6 inactive
Rad21: #1 116 inactive; #2 68.1 inactive; #3 157 active; #4 227 active; #5 223 active; #6 288 active
Rgs20: #1 66.2 inactive; #2 71.4 inactive; #3 42.8 inactive
Ms4a13: #1 62.7 inactive; #2 64.5 inactive; #3 69.9 inactive
Or52e8b: #1 60.3 inactive; #2 115 inactive; #3 63.7 inactive
Gcn1: #1 58.5 inactive; #2 42.1 inactive; #3 47.8 inactive
Mxra7: #1 17.5 inactive; #2 104 inactive; #3 74 inactive
Top1mt: #1 35.8 inactive; #2 56.3 inactive; #3 73.6 inactive
Cdk9: #1 57.2 inactive
Rtraf: #1 50.5 inactive; #2 49.1 inactive; #3 56.7 inactive; #4 98.2 inactive; #5 123 active; #6 103 inactive
Trim30b: #1 78.7 inactive; #2 48.2 inactive; #3 95.7 inactive
Acan: #1 116 inactive; #2 68.4 inactive; #3 85.3 inactive
Hdac4: #1 110 inactive; #2 119 inactive
Sell: #1 86 inactive; #2 98.1 inactive
Jag2: #1 82.7 inactive; #2 85.4 inactive; #3 72.7 inactive
Hjv: #1 87.5 inactive; #2 45 inactive; #3 95.2 inactive
